Assay results: PubChem BioAssay AID1487 (National Center for Advancing Translational Sciences (NCATS), 2009)
The other results are listed elsewhere or left out. These are further read-outs of the screen, such as a control signal, another cell line or another target. No call is given for them. Most of these compounds were active or inconclusive in the main read-out, so they are no random draw. The note in brackets gives the kind of curve behind each potency; many fits are weak.

Test: qHTS Assay for Modulators of Lamin A Splicing
Conditions: HeLa LMNA splicing GFP/RFP minigene ratio, 48 h
How it was run: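 S3 HeLa cells stably expressing lamin A-EGFP splicing minigene plus DsRed2, 600 cells/well, 48 h compound exposure at 37C. Laser-scanning cytometry; analysed as GFP (500-530 nm)/RFP (575-640 nm) total intensity ratio; 0.5% DMSO vehicle.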

[1] = measured here: RFP viability control channel
[2] = measured here: GFP splicing reporter channel

SMILES	AC50 [1]	AC50 [2]
c1ccc2c(SCc3cn4cccnc4n3)ncnc2c1	15.8 µM [rising, single point]	–
CC12CC(c3ccccc3O1)C(/C(N)=N/NC(=O)c1ccc(F)cc1)C(=O)N2 (configuration not stated)	22.4 µM [rising, partial curve, poor fit]	–
COC(=O)c1ccc(Sc2ccc(C)cc2)c(N)c1	17.8 µM [rising, single point]	–
COc1cccc(C(=O)C2CCCN(C(=O)c3cccc(C#CC(C)(C)O)c3)C2)c1 (configuration not stated)	0.447 µM [falling, full curve, poor fit]	0.794 µM [falling, full curve, poor fit]
CNC(=O)[C@H]1O[C@@H](n2cnc3c(NCc4ccc(I)cc4)nc(Cl)nc32)[C@H](O)[C@@H]1O	35.5 µM [falling, partial curve]	20 µM [falling, partial curve]
Oc1c(C(c2ccccc2Cl)N2CCC(O)CC2)sc2nc(-c3ccco3)nn12 (configuration not stated)	5.01 µM [falling, partial curve, poor fit]	–
Cc1c(C(=O)N2CCc3ccccc3C2)sc2nc(-c3ccccc3)cn12	25.1 µM [rising, single point]	11.2 µM [rising, partial curve]
O=C(OCCN1C(=O)c2cccc3c(N4CCOCC4)ccc(c23)C1=O)c1ccccc1Cl	6.31 µM [rising, partial curve]	–
CCOc1ncccc1C(=O)Nc1ccc(S(=O)(=O)NC2=NCCCCC2)cc1	–	6.31 µM [falling, partial curve, poor fit]
COc1ccc(OC)c(C(=O)c2coc3ccc(OC)cc23)c1	35.5 µM [rising, single point]	–
CC(C)CNC(C(=O)Nc1ccc([N+](=O)[O-])cc1Br)c1ccccc1 (configuration not stated)	35.5 µM [rising, single point]	–
CC1CCN(C(=O)c2ccc(CSc3ccc(Cl)cc3)cc2)CC1	15.8 µM [rising, single point]	–
Cc1ccc2c(c1)nnn2C1CCN(S(=O)(=O)c2ccc3ccccc3c2)CC1	20 µM [rising, partial curve]	35.5 µM [rising, single point]
C/C(CC1CC(C)(C)OC1=O)=N/Nc1nc(-c2ccccc2)cs1 (configuration not stated)	1.41 µM [rising, partial curve]	–
CC(C)Cn1cnc2c(N)nc3ccccc3c21	12.6 µM [rising, single point]	–
COc1ccc2oc(=O)c(C(=O)OCC(=O)c3ccc([N+](=O)[O-])cc3)cc2c1	4.47 µM [rising, partial curve]	–
COc1ccc(C)cc1NC(=O)c1sc2nc(-c3ccc(F)cc3)cn2c1C	35.5 µM [rising, single point]	–
CCN(CC)C(=O)c1sc2c(c1C)c(=O)n(Cc1ccccc1)c(=O)n2Cc1cc(C)ccc1C	–	0.158 µM [rising, full curve, poor fit]
CCOc1cc(S(=O)(=O)NCCc2c(C)[nH]c3ccc(C)cc23)ccc1F	35.5 µM [falling, partial curve]	–

SMILES	AC50 [1]	AC50 [2]
O=Nc1onc(-c2ccc([N+](=O)[O-])cc2)c1NO	35.5 µM [falling, partial curve, poor fit]	–
C/C(=N\Nc1nc(C)c(C)s1)c1ccc([N+](=O)[O-])cc1	15.8 µM [rising, single point]	–
Cc1ccc(C(=O)COC(=O)CCC(=O)NC2CCCCC2)cc1[N+](=O)[O-]	10 µM [rising, partial curve, poor fit]	0.708 µM [rising, full curve, poor fit]
COc1ccc(CNC(=O)c2sc3nc4c(c(C(F)(F)F)c3c2N)CCC4)cc1	12.6 µM [rising, partial curve]	10 µM [rising, partial curve, poor fit]
N#CC1=C(N)C(C#N)(C#N)[C@H](c2c(F)cccc2F)[C@H]2CC3(CC=C12)OCCO3	31.6 µM [rising, single point]	–
Cc1cccc(N2C(=O)C(O)=C(C(=O)c3cccs3)C2c2ccc(F)cc2)n1 (configuration not stated)	0.00501 µM [falling, full curve, poor fit]	0.01 µM [falling, partial curve, poor fit]
O=C(NCCN1C(=O)S/C(=C\c2cccnc2)C1=O)C1CC(=O)N(Cc2ccco2)C1 (configuration not stated)	8.91 µM [rising, partial curve]	–
COC(=O)c1ccc(NC(=S)NCCc2ccccc2)cc1	2.82 µM [falling, partial curve]	–
Cc1c(C(Nc2ccccn2)c2ccc(Cl)cc2)c(=O)n(-c2ccccc2)n1C (configuration not stated)	–	8.91 µM [rising, partial curve]
COc1ccc2c(c1OC)C(=O)N1c3ccccc3C(=O)N(c3ccc(F)cc3)C21 (configuration not stated)	5.62 µM [rising, partial curve, poor fit]	–
OCCC1CN(Cc2ccc(C(F)(F)F)cc2)CCN1Cc1ccccc1 (configuration not stated)	35.5 µM [falling, single point]	–
CC(C)C(NC(=O)CSCc1ccc([N+](=O)[O-])cc1)C(C)C	15.8 µM [rising, partial curve]	11.2 µM [rising, partial curve]
N#CC1(Cc2ccc(Cl)cc2)c2ccccc2C=CN1C(=O)c1ccccc1 (configuration not stated)	10 µM [rising, single point]	–
COc1ccc(C(C)(C)C)cc1S(=O)(=O)n1ccnc1C	–	0.00794 µM [rising, full curve, poor fit]
CCCC(=O)Nc1cccc(NC(=S)NC(=O)C(C)Oc2ccc(Cl)cc2Cl)c1 (configuration not stated)	17.8 µM [rising, single point]	14.1 µM [rising, single point]
C=CC[n+]1c(-c2ccc(Cl)cc2Cl)csc1Nc1ccc(NC(C)=O)cc1	31.6 µM [rising, single point]	–
Cc1nnc(N/N=C/c2ccccc2O)n1N	7.08 µM [falling, partial curve]	31.6 µM [falling, single point]
O=C(NCc1cccnc1)/C(=C/c1ccc(-c2ccc(Cl)cc2)o1)S(=O)(=O)c1ccccc1	3.16 µM [falling, full curve]	2.82 µM [falling, full curve]
N#Cc1ccc(-c2ccccc2)nc1SCC(=O)c1cccc(Cl)c1	35.5 µM [falling, single point]	35.5 µM [falling, single point]

SMILES	AC50 [1]	AC50 [2]
O=C(NCCc1ccccc1)c1ccc(-c2ccccc2C(F)(F)F)o1	6.31 µM [rising, partial curve, poor fit]	–
CNC(=O)CSc1nnc(-c2ccc3c(c2)OCO3)n1C	6.31 µM [falling, partial curve, poor fit]	–
CCOC(=O)c1c(C)oc2ccc(O)c(CN3CCCCC3)c12	35.5 µM [rising, partial curve]	–
O=S(=O)(c1ccc(Oc2ccccc2)cc1)N1CCOCC1	11.2 µM [rising, single point]	–
CCOc1ccc(CNC(=O)CCCn2c(=O)c3cccn3c3ccccc32)cc1	35.5 µM [falling, single point]	–
COCC(=O)Nc1c(I)c(C(=O)NC[C@@H](O)CO)c(I)c(C(=O)N(C)C[C@@H](O)CO)c1I	0.00398 µM [falling, full curve, poor fit]	2.24 µM [falling, single point]
Cc1cccc(NC(=O)COc2ccc(Br)cc2/C=N/O)c1	35.5 µM [rising, single point]	–
O=C(O)c1n[nH]nc1-c1ccccc1	1.78 µM [falling, full curve, poor fit]	–
CC(Sc1nnnn1-c1ccccc1)C(=O)Nc1ccccc1-c1ccccc1 (configuration not stated)	15.8 µM [rising, single point]	–
Cc1nnc(SCCN2CCOCC2)c2nn(-c3ccccc3F)c(C)c12	–	0.0224 µM [rising, full curve, poor fit]
CC(C)c1ccc(C2NC(=S)NC3=C2C(=O)CC(C)(C)C3)cc1 (configuration not stated)	35.5 µM [rising, single point]	–
Clc1ccc2[nH]c3c(NCC4CCCO4)ncnc3c2c1 (configuration not stated)	14.1 µM [rising, partial curve]	–
Nc1ccc2c(c1)C/C(=C/c1ccco1)C2=O	–	7.08 µM [rising, partial curve]
Cc1ccc(-c2nnc(SCC(=O)NC(C)(C)C)nc2-c2ccc(C)cc2)cc1	–	15.8 µM [falling, partial curve, poor fit]
Nc1nc(SCn2nnc3ccccc3c2=O)n[nH]1	7.08 µM [falling, partial curve, poor fit]	5.01 µM [falling, partial curve, poor fit]
Cc1ccc(-n2c(SCC(=O)Nc3cccc(S(N)(=O)=O)c3)nc3ccccc32)cc1	11.2 µM [rising, partial curve]	–
Cn1sc(=O)c2cc(S(=O)(=O)NC3CC3)ccc21	–	4.47 µM [falling, full curve, poor fit]
Cc1ccc(C(=O)N/C(=C\c2ccccc2)C(=O)OCc2ccccc2)cc1	15.8 µM [rising, partial curve]	–
C=CCn1c(N)c(C(=O)OC(C)CC)c2nc3ccccc3nc21 (configuration not stated)	10 µM [rising, partial curve]	14.1 µM [rising, single point]

A draw from above in order of molecular weight, high to low:
SMILES	AC50 [1]	AC50 [2]
C=CC[n+]1c(-c2ccc(Cl)cc2Cl)csc1Nc1ccc(NC(C)=O)cc1	31.6 µM [rising, single point]	–
Cc1ccc(-c2nnc(SCC(=O)NC(C)(C)C)nc2-c2ccc(C)cc2)cc1	–	15.8 µM [falling, partial curve, poor fit]
Cc1ccc(C(=O)N/C(=C\c2ccccc2)C(=O)OCc2ccccc2)cc1	15.8 µM [rising, partial curve]	–
CC(C)C(NC(=O)CSCc1ccc([N+](=O)[O-])cc1)C(C)C	15.8 µM [rising, partial curve]	11.2 µM [rising, partial curve]
COc1ccc(C(C)(C)C)cc1S(=O)(=O)n1ccnc1C	–	0.00794 µM [rising, full curve, poor fit]
